Out of some 340,000 compounds screened, about 6,200 (1.8%) were called active. This list was built around the results that the source calls inconclusive (neither active nor inactive); the mix of calls is not that of the screen. The call rests on the fitted dose curve; in most records, active means well fitted activation curve with a large enough effect; inconclusive means small, poorly fitted or top-dose-only effect; inactive means no such curve, though single readings can be large or run the other way. Where the call is inconclusive, the potency comes from a doubtful curve fit.
Assay: A quantitative high throughput screen for small molecules that induce DNA re-replication in SW480 colon adenocarcinoma cells. Further: nearly all actives have a fitted effect of over 55% in size.
Conditions: Hoechst DNA content imaging, 48 h; series mostly up to 46.1 µM
Outline: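 Compounds, transferred as 23 nL by pin tool, were incubated with cells for 48 hr; DNA content per nucleus was then quantified by Hoechst staining and fluorescence plate imaging.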
Potency means the concentration at half of the fitted maximal effect.

Row | SMILES | Potency
1 | COc1ccc(NC(=O)CC(C)CC(=O)NCc2ccccc2)c(OC)c1 (stereo not given) | inconclusive: 2.91 µM [activator, partial curve, poor fit]
2 | NC(=O)C1CCN(c2ccnc3cc(Cl)ccc23)CC1 | inactive
3 | Cc1cccc(OCCCOc2cccc3cccnc23)c1C | inconclusive: 18.4 µM [activator, partial curve, poor fit]
4 | CCNC(=S)N/N=C(\C)c1ccco1 | inconclusive: 29.1 µM [activator, single point]
5 | COc1cccc(/C=N/Nc2nnc(C)n2N)c1O | inconclusive: 18.4 µM [activator, single point]
6 | CC(C)CC(=O)Nc1ccccc1N1CCCC1 | inactive
7 | O=C(/C=C/c1ccccc1)Nc1ccc(Cl)cn1 | active: 14.6 µM
8 | C/C(N)=C(/C#N)C(=O)CSc1nnc(-c2ccccc2)n1C | inactive
9 | NS(=O)(=O)c1ccc(N2N=C(c3ccccc3)CC2c2cccc(Br)c2)cc1 (stereo not given) | active: 23.1 µM
10 | O=C(COc1ccc(/C=N/NC(=O)c2cc3ccccc3o2)cc1Br)Nc1ccccc1 | inconclusive: 20.6 µM [activator, partial curve, poor fit]
11 | S=C(Nc1cccnc1)NC1CCCCCCC1 | inactive
12 | Cc1ccc(C)c(S(=O)(=O)Nc2ccc3[nH]c(=O)[nH]c3c2)c1 | inactive
13 | Cc1onc(-c2ccccc2)c1C(=O)N1CCN(S(=O)(=O)c2ccc(OC(F)(F)F)cc2)CC1 | inactive
14 | CCOC(=O)/C(=C\c1ccc(C)cc1)NC(=O)c1ccccc1 | inactive
15 | COc1ccc(C(CCNCc2ccc(OC(C)C)cc2)c2ccccc2OC)cc1 (stereo not given) | inconclusive: 29.1 µM [activator, single point]
16 | COc1ccc(-c2nn(-c3ccccc3)cc2/C=N/N=C(N)N)cc1OC | inconclusive: 23.1 µM [activator, single point]
17 | CCOC(=O)C1CCCN1C(=O)C1(NC(C)=O)CCCC1 (stereo not given) | inactive
18 | COc1ccccc1NC(=O)Cn1ccn(-c2cccc3ccccc23)c(=O)c1=O | inconclusive: 20.6 µM [activator, single point]
19 | COc1ccc(C(=O)CSc2nnc(NC(=O)C3CC(=O)N(c4cccc(OC)c4)C3)s2)cc1 (stereo not given) | inconclusive: 6.51 µM [activator, single point]
20 | O=C(Nc1ccccc1Cl)C1CCCN1C(=O)OCc1ccccc1 (stereo not given) | inconclusive: 25.9 µM [activator, partial curve, poor fit]
21 | COCCCNC(=O)CC1C[C@H](C(=O)N2CCCCC2)[C@@]2(CCc3ccccc3)c3[nH]c4ccc(OC)cc4c3CCN2C1=O (stereo not given in full) | active: 18.4 µM
22 | O=C(CCc1nc(-c2ccccc2)no1)NCc1ccccc1CN1CCOCC1 | inconclusive: 29.1 µM [activator, single point]
23 | CC(=O)NC(c1ccc2ccccc2c1)c1ccc2cccnc2c1O (stereo not given) | inconclusive: 0.731 µM [activator, partial curve, poor fit]

Row | SMILES | Potency
24 | COC(=O)CCC[C@H]1CC2(C[C@H](CCCO[Si](C)(C)C(C)(C)C)N1C(=O)OC(C)(C)C)OCCO2 | inconclusive: 16.4 µM [activator, single point]
25 | CCOC(=O)c1c(CN(C)C)n(C)c2c(O)c(N=NC(N)=O)c3ccc(Br)cc3c12 | inconclusive: 29.1 µM [activator, single point]
26 | O=c1[nH]c2ccccc2n1CCCSCCCn1c(=O)[nH]c2ccccc21 | inactive
27 | O=C(COC(=O)/C=C/C(=O)OCC(=O)NC12CC3CC(CC(C3)C1)C2)NC12CC3CC(CC(C3)C1)C2 | active: 18.4 µM
28 | CC(NC(=O)Cn1c(NCCO)nc2ccccc21)c1ccccc1 (stereo not given) | inactive
29 | N#Cc1c(N)n(CCOC(=O)c2cccc(Br)c2)c2nc3ccccc3nc12 | inconclusive: 18.4 µM [activator, single point]
30 | CCOc1ccccc1C(=O)N/N=C/c1coc2ccc(Cl)cc2c1=O | active: 14.6 µM
31 | CC(C)(O)[C@H](O)COc1c2ccoc2cc2oc(=O)ccc12 | inconclusive: 0.116 µM [activator, full curve, poor fit]
32 | CCc1ccccc1Oc1ccc(S(=O)(=O)N2CCN(C)CC2)cn1 | inactive
33 | Cc1ccc2c(c1)c1c(n2CC(O)CNC2CCCC2)CCCC1 (stereo not given) | inconclusive: 29.1 µM [activator, single point]
34 | COC(=O)Cn1c(=O)c2c(n(Cc3ccccc3)c1=O)N/C(=C/c1ccc(OC)cc1)C2=O | active: 20.6 µM
35 | Oc1ccc(NC(=S)N=Nc2c(O)[nH]c3ccc(Br)cc23)cc1 | inconclusive: 25.9 µM [activator, single point]
36 | NC(=O)C1=C(c2ccccc2)c2ccccc2C1=O | inconclusive: 29.1 µM [activator, single point]
37 | C=CCSc1nnc(C)c(/C=C/Nc2ccc(Cl)cc2)n1 | inconclusive: 18.4 µM [activator, single point]
38 | Cn1c(SC2=CS(=O)(=O)c3ccccc32)nc2ccccc21 | inconclusive: 2.91 µM [activator, full curve, poor fit]
39 | O=C1C=C(c2ccc3cc[nH]c3c2)C[C@@H](c2ccc3c(c2)OCO3)C1 | inconclusive: 14.6 µM [activator, partial curve, poor fit]
40 | Cc1nc(-c2ccc(F)cc2)c(CC(=O)N(C)CC(=O)Nc2ccccc2Cl)s1 | inactive
41 | O=C(Cc1ccc(NC(=O)C2CCCN(C(=O)C3CCC3)C2)cc1)Nc1cccc(C(=O)N2CCCCC2)c1 (stereo not given) | inconclusive: 6.51 µM [activator, single point]
42 | CN1CC(=O)N2C(c3ccc(Cl)cc3)c3[nH]c4ccccc4c3C[C@H]2C1=O (stereo not given in full) | inconclusive: 29.1 µM [activator, single point]
43 | CC(C)C(=O)NC(NC(=S)NC1CCS(=O)(=O)C1)C(Cl)(Cl)Cl (stereo not given) | inconclusive: 23.1 µM [activator, single point]
44 | O=c1[nH]c2cc(S(=O)(=O)CCO)ccc2o1 | inactive
45 | CC(C)(C)c1ccc(C(=O)N2CCN(c3ncccn3)CC2)cc1 | inconclusive: 0.82 µM [activator, full curve, poor fit]

Compounds 33 through 34 of the list above:
Row | SMILES | Potency
33 | Cc1ccc2c(c1)c1c(n2CC(O)CNC2CCCC2)CCCC1 (stereo not given) | inconclusive: 29.1 µM [activator, single point]
34 | COC(=O)Cn1c(=O)c2c(n(Cc3ccccc3)c1=O)N/C(=C/c1ccc(OC)cc1)C2=O | active: 20.6 µM
